Experimental data: PubChem BioAssay AID587 (National Center for Advancing Translational Sciences (NCATS), 2007)
In all, about 59,000 compounds went through this assay and about 35 (0.06%) were called active. Inconclusive results, whose numbers are uncertain, are shown with a selection of clear calls. No stated cut-off is given here; in the data, active means max dye-equivalent concentration above about 10 nM; inconclusive means between about 1.1 nM and that limit; inactive means weaker than that.

Assay: qHTS Assay for Spectroscopic Profiling in Texas Red Spectral Region
Conditions: Compound fluorescence, Texas Red channel, 547/618 nm; stronger effect = higher value
Outline: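 Pin-transferred compounds and Texas Red standards go into 100 mM Tris buffer, pH 8.0. After 15 min at room temperature, plates are imaged with 547/618 nm filters. Each value is a dye-equivalent concentration derived from the per-plate dye curve.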

Row | SMILES | max dye-equivalent concentration
1 | CCOC(=O)C1CCN(C(=O)c2sc3nc(-c4ccc(F)cc4)cn3c2C)CC1 | inconclusive: 1.1 nM
2 | Cc1nn(C(=O)c2ccccc2)c2c1C(=O)CC(C)(C)C2 | inconclusive: 1.2 nM
3 | CCCc1nc2ccccc2c(=O)n1/N=C/c1ccc(O)cc1O | inconclusive: 1.1 nM
4 | CCCCn1c(SCc2c(C)noc2C)nc2cc(S(N)(=O)=O)ccc21 | inconclusive: 2.4 nM
5 | N[C@@H](CSCc1ccc(I)cc1)C(=O)O | inconclusive: 1.2 nM
6 | COc1cc(C(=O)OCC(=O)Nc2cc(C)on2)ccc1OCc1ccccc1Cl | inconclusive: 1.7 nM
7 | Cc1cc(NC(=O)c2ccc3c(c2)C(=O)N(CCC(C)C)C3=O)no1 | inconclusive: 1.4 nM
8 | Cc1ccc(OCc2nnc(SCCN3CCOCC3)n2C)cc1 | inconclusive: 1.2 nM
9 | CCn1c(SCC(=O)N2CCCc3ccccc32)nc2cccnc21 | inconclusive: 1.3 nM
10 | Cc1cc(C)n2nc(SCC(=O)c3ccccc3)nc2n1 | inconclusive: 1.1 nM
11 | COc1ccccc1/C=c1\sc2nc(-c3ccncc3)nn2c1=O | inactive
12 | CCC(=O)N1CCN(c2ccccc2NC(=O)COc2cccc(C)c2)CC1 | inconclusive: 1.1 nM
13 | CCCCNC(=O)C(NS(=O)(=O)c1cccc2nsnc12)c1ccccc1 (configuration not stated) | inconclusive: 1.5 nM
14 | CCC(=O)Nc1ccc(-c2nn3c(C)nnc3s2)cc1 | inconclusive: 1.3 nM
15 | CC(C)Oc1cccc(C(=O)Nc2ccc(CN3CCOCC3)cc2)c1 | inconclusive: 1.4 nM
16 | O=C(NCC(c1cccnc1)N1CCN(c2ccc(F)cc2)CC1)OCc1ccccc1 (configuration not stated) | inconclusive: 1.6 nM
17 | O=C(COC(=O)CCc1c[nH]c(=O)[nH]1)Nc1ccccc1Cl | inconclusive: 1.1 nM
18 | COc1ccc(C(c2nnnn2Cc2ccc(F)cc2)N2CCN(c3ccccc3)CC2)cc1 (configuration not stated) | inconclusive: 1.8 nM
19 | CCn1cc(CNC(=O)CCc2ccc(OC)cc2)cn1 | inconclusive: 1.4 nM
20 | COc1cc(OC)nc(NC(=O)CSc2nc3ccccc3[nH]2)n1 | inconclusive: 3 nM
21 | OC1CCCN(c2c3c(nc4cc(-c5cccc(Cl)c5)nn24)CCC3)C1 (configuration not stated) | inconclusive: 1.2 nM
22 | COc1ccc(NC(=O)Cn2nnc(-c3ccccc3NC(=O)c3ccco3)n2)cc1 | inconclusive: 1.2 nM

Row | SMILES | max dye-equivalent concentration
23 | CC(CCc1nc2ccccc2s1)(c1ccc(O)cc1)c1ccc(O)cc1 | inactive
24 | Cc1ccc2nsnc2c1S(=O)(=O)NCc1ccc2c(c1)OCO2 | inconclusive: 1.1 nM
25 | O=S(=O)(NCc1ccc2c(c1)OCO2)c1cccc(S(=O)(=O)N2CCOCC2)c1 | inconclusive: 1.3 nM
26 | CCOc1ccccc1NC(=O)CN(C)S(=O)(=O)c1ccc(OC)c(C)c1 | inactive
27 | O=C(OCCN1C(=O)c2ccccc2C1=O)c1cc(=O)[nH]c2ccccc12 | inconclusive: 1.5 nM
28 | O=C(c1noc2c1CCCC2)N1CCCCC1 | inconclusive: 1.3 nM
29 | COc1ccc(C2CC(=O)c3cnc(NC(=O)c4cccc(OC)c4)nc3C2)cc1 (configuration not stated) | inconclusive: 1.2 nM
30 | CC(=O)N[C@H](CS)C(=O)O | inconclusive: 1.2 nM
31 | Cc1ccc(NC(=O)CN2C(=O)NC(Cc3ccccc3)C2=O)cc1 (configuration not stated) | inconclusive: 1.6 nM
32 | Nc1nnnn1N=C1CCCCC1 | inconclusive: 1.3 nM
33 | COc1cc(C(=O)N2CCN(C(=O)C(Cc3cc(C)ccc3C)NC(C)=O)CC2)cc(OC)c1OC (configuration not stated) | inconclusive: 1.6 nM
34 | CCS(=O)(=O)N1CCN(C(=O)c2cc(OC)cc(OC)c2)CC1 | inconclusive: 1.9 nM
35 | COC(=O)c1nc(NC(=O)c2ccc(Cl)cc2)n[nH]1 | inconclusive: 1.4 nM
36 | CCC(=O)N1CCN(c2ccc(NC(=O)c3ccco3)cc2)CC1 | inconclusive: 1.1 nM
37 | Cc1ccc(-c2nnc(SCc3ccccc3F)o2)cc1 | inconclusive: 1.2 nM
38 | O=C(CCC(=O)c1ccc[nH]1)c1ccc(Cl)cc1 | inconclusive: 1.3 nM
39 | CC(=O)Nc1cccc(C(=O)N2CCN(Cc3ccccc3)CC2)c1 | inconclusive: 1.5 nM
40 | CCOc1ccc(OCCSc2nnnn2C2CCCCC2)cc1 | inconclusive: 1.2 nM
41 | C=CCn1c(=O)c2ccccc2n2c(SCc3cc(=O)n4ccsc4n3)nnc12 | inconclusive: 2.5 nM
42 | COc1ccc(CCNC(=O)c2nc3ncccn3n2)cc1OC | inconclusive: 1.1 nM
43 | COc1cc(OC)cc([C@H](CNc2ncnc3c2ncn3[C@@H]2O[C@@H](CO)[C@H](O)[C@@H]2O)c2ccccc2C)c1 | inactive
44 | Cc1ccccc1-n1c(SCC(=O)N2CCN(c3ccccc3)CC2)nnc1-c1ccncc1 | inconclusive: 1.1 nM

Sorted by molecular weight (high to low): three of the compounds above
Row | SMILES | max dye-equivalent concentration
43 | COc1cc(OC)cc([C@H](CNc2ncnc3c2ncn3[C@@H]2O[C@@H](CO)[C@H](O)[C@@H]2O)c2ccccc2C)c1 | inactive
33 | COc1cc(C(=O)N2CCN(C(=O)C(Cc3cc(C)ccc3C)NC(C)=O)CC2)cc(OC)c1OC (configuration not stated) | inconclusive: 1.6 nM
35 | COC(=O)c1nc(NC(=O)c2ccc(Cl)cc2)n[nH]1 | inconclusive: 1.4 nM

More results follow:

Row | SMILES | max dye-equivalent concentration
45 | CCn1c(SCC(=O)Nc2cccc(NC(=O)c3cccs3)c2)nnc1-c1ccncc1 | inconclusive: 1.1 nM
46 | COc1ccc(-c2nc3cnc(N4CCOCC4)nc3n(C[C@H]3CCCO3)c2=O)cc1 | inactive
47 | CCC(=O)N1CCc2cc(S(=O)(=O)CCC(=O)NCc3cccs3)ccc21 | inconclusive: 1.2 nM
48 | O=c1[nH]cnc2scc(-c3ccc(F)cc3)c12 | inactive
49 | O=C(C(Cc1ccccc1)N1C(=O)C2C3C=CC(C3)C2C1=O)N1CCCCCC1 (configuration not stated) | inconclusive: 1.8 nM
50 | N#Cc1ccc(CN2CCC3(CCNCC3)CC2)cc1 | inactive
51 | COCCn1c(=O)c(-c2cccs2)nc2cnc(N3CCN(C)CC3)nc21 | inactive
52 | CCOC(=O)C(NC(=O)Nc1ccc(F)cc1)(OCC)C(F)(F)F (configuration not stated) | inconclusive: 1.6 nM
53 | COc1cccc(-c2nnc3sc(-c4ccccn4)nn23)c1 | inconclusive: 1.4 nM
54 | c1ccc2c(-c3ccncc3)c[nH]c2c1 | inactive
55 | Cc1occc1C(=O)Nc1cc(C(F)(F)F)ccc1Cl | inconclusive: 1.7 nM
56 | Cc1ccc(-c2noc(CCC(N)=O)n2)cc1 | inconclusive: 1.4 nM
57 | Cc1ccccc1OCC(=O)N(Cc1nc(-c2ccccc2)no1)C(C)C | inconclusive: 2.3 nM
58 | COc1ccc(C(CC(=O)O)NC(=O)c2cccs2)cc1 (configuration not stated) | inconclusive: 1.1 nM
59 | COc1ccc2c(c1)CCC(C)N2S(=O)(=O)c1ccc(C2CNC(=O)C2)cc1 (configuration not stated) | inconclusive: 1.7 nM
60 | COC(=O)c1nc2n(n1)C(c1cc(OC)ccc1OC)C(C(=O)OC1CCCCC1)=C(C)N2 (configuration not stated) | inconclusive: 1.3 nM
61 | CCOC(=O)CSc1nnc(CNC(=O)c2ccc(OC)cc2OC)n1C | inconclusive: 1.7 nM
62 | CCOC(=O)c1c(NC(=O)c2noc3c2CCCC3)sc(C)c1C | inconclusive: 1.9 nM
63 | CCCC[S@@](=N)(=O)CC[C@@H](N)C(=O)O | inactive
64 | CCCCOc1ccc(C(=O)Nc2ccc(S(=O)(=O)Nc3cc(C)on3)cc2)cc1OC | inconclusive: 1.2 nM
65 | O=C(CN1CCCN(S(=O)(=O)c2ccc(Br)cc2)CC1)Nc1ccc2cn[nH]c2c1 | inconclusive: 1.6 nM
66 | C=C/C(C)=C/[C@]1(C)SC(=O)C(C)=C1O | inactive

Molecules above that have a CF3 group (2):
Row | SMILES | max dye-equivalent concentration
52 | CCOC(=O)C(NC(=O)Nc1ccc(F)cc1)(OCC)C(F)(F)F (configuration not stated) | inconclusive: 1.6 nM
55 | Cc1occc1C(=O)Nc1cc(C(F)(F)F)ccc1Cl | inconclusive: 1.7 nM

Next structures

Row | SMILES | max dye-equivalent concentration
67 | CCc1cc2c(N[C@@H](C)C(=O)O)ncnc2s1 | inconclusive: 1.7 nM
68 | CCn1c(SCC(=O)C(C)(C)C)nnc1-c1cccnc1 | inconclusive: 2.2 nM
69 | O=C(c1ccco1)N1CCN(C(=O)c2cccc3c2C(=O)N(C2CCCCC2)C3)CC1 | inconclusive: 1.7 nM
70 | Cn1nnnc1SCC(=O)Nc1ccc(N2CCOCC2)cc1 | inconclusive: 1.1 nM
71 | CCCCCCCCCCCCCCCCCCOC[C@@H](COP(=O)([O-])OCC[N+](C)(C)C)OC | inconclusive: 1.1 nM
72 | CC(=O)Nc1nc2n(n1)C(c1ccc(F)cc1)C=C(c1ccccc1)N2 (configuration not stated) | inactive
73 | c1ccc2c(c1)-c1ccccc1C2N1CC2CCC(CC2)C1 | inconclusive: 1.7 nM
74 | CC1(C)CC(CCNC(=O)c2ccco2)CC(C)(C)N1 | inconclusive: 1.5 nM
75 | C[C@H]1[C@H](NC(=O)/C(=N/OC(C)(C)C(=O)O)c2csc(N)n2)C(=O)N1S(=O)(=O)O (stereo in doubt) | inactive
76 | COc1cc2cc3c4c(cc(OC)c(OC)c4c2cc1OC)CCN3C | inconclusive: 1.3 nM
77 | COCCn1c(=O)c(CCc2ccccc2)nc2cncnc21 | inactive
78 | COc1cc(S(=O)(=O)N(Cc2ccc(C)cc2)C2CCCCC2)ccc1-n1cnnn1 | inconclusive: 1.3 nM
79 | COc1ccc(C(=O)CSc2nnc(CNc3nc(-c4ccccc4)cs3)n2C)cc1 | inconclusive: 1.7 nM
80 | CCN1CCN(c2ncnc3sc(C(=O)Nc4ccccc4F)c(C)c23)CC1 | inconclusive: 1.3 nM
81 | COc1cccc(NC(=O)CSc2nnc(-c3cccc(OC(C)C)c3)n2N)c1 | inconclusive: 1.2 nM
82 | Cc1ccc2nc3c(c(N)c2c1)CCN3c1ccccc1 | inconclusive: 2 nM
83 | O=S(=O)(c1ccc2nc(COc3ccccc3)[nH]c2c1)N1CCOCC1 | inconclusive: 2.1 nM
84 | CCOC(=O)N1CCC(NC(=O)C2CCN(C(=O)N3CC(C)Oc4ccc(C)cc43)CC2)CC1 (configuration not stated) | inconclusive: 1.2 nM
85 | Nc1cc(=O)[nH]c(SCC(=O)Nc2ccc(Br)cc2)n1 | inconclusive: 1.2 nM
86 | COc1ccc(-c2nc(C#N)c(N3CC(C)OC(C)C3)o2)cc1OC (configuration not stated) | inconclusive: 1.4 nM
87 | Cc1noc(C)c1-c1nc(NCc2ccccc2)c2ccccc2n1 | inactive
